Experimental data: patent US20140086924A1
These are yes or no findings as the source states them, for the method shown. For part of these data: Binding seen in cells or lysates may run through a third protein. Some binding calls cover weakened binding; strength is not graded here.

Assays:
[1] = molecular target: full-length human, wild type Survivin (human) (UniProt O15392); assay: anti-FLAG co-immunoprecipitation from transfected HeLa cells, Western blot
[2] = molecular target: full-length human, wild type Survivin (human) (UniProt O15392); assay: in vitro pull-down, immunoblot
[3] = molecular target: GST-Hsp90 (amino acids 1-732) (human) (UniProt P07900); assay: 35S in vitro translated protein, Sepharose-GST-Hsp90 pull-down, autoradiography
[4] = molecular target: GST-Hsp90 (amino acids 1-732) (human) (UniProt P07900); assay: GST-Hsp90 pull-down of 35S in vitro translated protein, autoradiography
[5] = molecular target: GST-Hsp90 (amino acids 1-732) (human) (UniProt P07900); assay: pull-down of 35S in vitro translated XIAP with GST-Hsp90, autoradiography
[6] = molecular target: GST-Hsp90 (amino acids 1-732) (human) (UniProt P07900); assay: pull-down of 35S in vitro translated protein with Sepharose-GST-Hsp90, autoradiography
[7] = molecular target: GST-Hsp90 (amino acids 1-732) (human) (UniProt P07900); assay: in vitro GST pull-down
[8] = molecular target: GST-Hsp90 (amino acids 1-732) (human) (UniProt P07900); assay: GST pull-down
[9] = molecular target: GST-Hsp90 (amino acids 1-732) (human) (UniProt P07900); assay: pull-down of 35S in vitro translated XIAP BIR1 with GST-Hsp90, autoradiography
[10] = molecular target: T1, Survivin Ile74-Leu87 peptide (human); assay: affinity chromatography of Raji cell extracts on peptide coupled to Sulfolink gel, Western blot
T1 sequence (peptide): IDDHKKHSSGCAFL

[11] = molecular target: T1, Survivin Ile74-Leu87 peptide (human); assay: affinity chromatography on immobilized peptide, immunoblot
[12] = molecular target: FLAG-Hsp90 N domain (amino acids 1-272 of SEQ ID NO:21) (human); assay: anti-FLAG co-immunoprecipitation, immunoblot
[13] = molecular target: GST-Hsp90 (amino acids 1-732) (human) (UniProt P07900); assay: in vitro pull-down with Sepharose-GST-Hsp90, Western blot
[14] = molecular target: GST-Hsp90 (amino acids 1-732) (human) (UniProt P07900); assay: in vitro pull-down of r-Survivin (30, 100, 300 ng) with Sepharose-GST-Hsp90, Western blot for Survivin
[15] = molecular target: GST-Hsp90 (amino acids 1-732) (human) (UniProt P07900); assay: pull-down of r-Survivin with GST-Hsp90, Western blot for Survivin
[16] = molecular target: GST-N-Hsp90 (amino acids 1-272 of SEQ ID NO:21) (human); assay: in vitro pull-down with GST-N-Hsp90, Western blot
[17] = molecular target: GST-N-Hsp90 (amino acids 1-272 of SEQ ID NO:21) (human); assay: in vitro pull-down of r-Survivin (30, 100, 300 ng) with GST-N-Hsp90, Western blot for Survivin
[18] = molecular target: GST-N-Hsp90 (amino acids 1-272 of SEQ ID NO:21) (human); assay: pull-down of r-Survivin with GST-Hsp90 N, Western blot for Survivin

Measured: binding

FLAG-Hsp90 N domain (amino acids 1-272 of SEQ ID NO:21) (from UniProt O02705 1-273)
binds: [1]

GST-N-Hsp90 (amino acids 1-272 of SEQ ID NO:21) (from UniProt O02705 1-273)
binds: [2]

XIAP (full length) (from UniProt P98170 1-497)
binds: [3] | [4] | [5] | [6] | [7]

XIAP BIR1 fragment (Met 1 to Ser 123) (from UniProt P98170 1-123)
binds: [8] | [4] | [9]

cIAP2 (from UniProt Q13489 1-604)
binds: [3] | [6] | [7]

full length Hsp90alpha (from UniProt P07900 1-732)
binds: [10] | [11]

full-length human, wild type Survivin (from UniProt O15392 1-142)
binds: [12] | [13] | [14] | [3] | [15] | [16] | [17] | [6] | [18]

truncated form of XIAP containing only the three BIR domains, residues 1-292 (from UniProt P98170 1-292)
binds: [3] | [6] | [7]
